Data taken from article PMC8262591 (Brain research bulletin, 2020).
Structures can show the parent of a compound that is named as a salt.

Tested on: brain CYP2D
Details: propafenone i.c.v. pretreatment vs vehicle

CCCNCC(O)COc1ccccc1C(=O)CCc1ccccc1 (centres unmarked) [propafenone, Propafenone hydrochloride]
animals with increased tramadol analgesia at 30 min during microdialysis (p=0.09): 5 of 6 | animals with increase in analgesia AUC from 0–60 min after oral tramadol (within-animal): 10/11
